Reference: PubChem BioAssay AID720535 (National Center for Advancing Translational Sciences (NCATS), 2013)
Hit rate of the full screen: of about 1,600 compounds, about 420 (26%) were called active. The inconclusive results got no clear call from the source; some entries with a clear call stand among them for comparison. The call rests on the fitted dose curve; in most records, active means well fitted inhibition curve with a large enough effect; inconclusive means small, poorly fitted or top-dose-only effect; inactive means flat fitted curve, though single readings scatter. Potencies beside an inconclusive call are fits to weak or partial responses and may not hold up.
Potency means the concentration at half of the fitted maximal effect.

Experiment: qHTS for Inhibitors of TGF-b: Cytotox Counterscreen for Cherry Picks; further: nearly all actives have a fitted effect of over 70% in size
Conditions: HepG2 CAGA-GFP viability, ATP luminescence, 18 h, cells stimulated with TGF-beta, 500 pg/mL; activity, negative = cytotoxicity: at 46.1 µM (top of the series)
Outline: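 HepG2 CAGA-GFP cells (1000/well, DMEM with 1% FBS) were pin-dosed with compounds after 2 h, stimulated with TGF-beta at 500 pg/mL final for 18 h at 37 °C, and viability read by CellTiter-Glo luminescence.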
With `COc1ccc(NS(=O)(=O)c2ccc(OC)c(N(C)S(=O)(=O)c3ccc(Cl)cc3)c2)cc1` the Potency was inconclusive: 3.26 µM [inhibitor, full curve, poor fit]. With `Oc1ccc(C[C@H]2CNC(=S)N2CC2CCCN2C[C@H](Cc2ccccc2)N2C[C@H](Cc3ccc(O)cc3)N(CCc3ccccc3)C2=S)cc1` (stereo partly drawn) the Potency was inconclusive: 9.2 µM [inhibitor, partial curve]. For `c1ccc(-c2csc3ncnc(NCC4COc5ccccc5O4)c23)cc1` (stereo not drawn), the Potency was inconclusive: 9.2 µM [inhibitor, partial curve]. With `CCc1ccccc1Oc1nc(NCc2ccccc2)nc2ccsc12` the Potency was inconclusive: 18.4 µM [inhibitor, single point]. For `COc1ccccc1N1CCN(C(=O)c2ccc3c(Cl)c4c(nc3c2)CCCC4)CC1`, the Potency was inconclusive: 20.6 µM [inhibitor, single point]. In the case of `COC(=O)COc1cccc2c(=O)n(CC(=O)NCc3ccccc3)ccc12`, the “activity, negative = cytotoxicity” value is reported as inactive: -2.86%. With `CC(=O)Nc1ccc2c(c1)-c1ccc(F)cc1C2` the Potency was inconclusive: 18.4 µM [inhibitor, single point]. In the case of `Cc1ccc(-c2ccc(SCC(=O)Nc3ccc4c(c3)OCCO4)nn2)cc1`, the “activity, negative = cytotoxicity” value is reported as inactive: 3.06%. For `CCCn1c(C(C)Nc2nc(-c3ccc(C)cc3)cs2)nc2ccccc21` (stereo not drawn), the Potency was inconclusive: 29.1 µM [inhibitor, single point]. In the case of `O=C(Nc1ccccc1)Nc1nnc(CSCc2ccccc2Cl)s1`, the “activity, negative = cytotoxicity” value is reported as inactive: -27.9%. For `CC1CC(C)C(=O)C(C(CC2CC(=O)NC(=O)C2)OC(=O)CC(=O)c2ccccc2)C1` (stereo not drawn), the Potency was inconclusive: 0.461 µM [inhibitor, full curve]. For `Cc1ccc(NC(=O)c2cc(S(=O)(=O)N(C)C)ccc2N2CCCC2)cc1F`, the “activity, negative = cytotoxicity” value was inactive: -15%. For `COC(=O)[C@]1(Cc2ccccc2)N[C@H](CN(C)C(=O)Nc2ccc(C(F)(F)F)cc2)[C@@H]2C(=O)N(Cc3ccccc3)C(=O)[C@@H]21`, the “activity, negative = cytotoxicity” value was inactive: -27.2%. With `O=c1c2cn[nH]c2nc(SCc2ccccc2F)n1-c1ccc(Br)cc1` the Potency was inconclusive: 18.4 µM [inhibitor, single point]. In the case of `CC(C(=O)N1CCc2ccccc21)N1CCN(c2cccc(C(F)(F)F)c2)CC1` (stereo not drawn), the “activity, negative = cytotoxicity” value is reported as inactive: 3.29%. With `COc1ccc(O)c(-c2cc(-c3ccccc3Cl)[nH]n2)c1` the Potency was inconclusive: 18.4 µM [inhibitor, partial curve]. For `COc1ccc(NS(=O)(=O)c2cccc(NC(=O)CCC(=O)c3ccc(Cl)cc3)c2)cc1`, the Potency was inconclusive: 29.1 µM [inhibitor, single point]. With `CC1CCc2[nH]c3ccc(C(=O)N4CCCC(C(F)(F)F)C4)cc3c2C1` (stereo not drawn) the Potency was inconclusive: 20.6 µM [inhibitor, single point]. For `c1ccc(CNc2nc(NCCc3ccncc3)c3sccc3n2)cc1`, the Potency was active: 7.31 µM. With `Cc1cccc(N2CCN(C(=O)CCCSc3nc4ccccc4[nH]3)CC2)c1C` the Potency was inconclusive: 29.1 µM [inhibitor, single point]. In the case of `NC(=O)c1cc([N+](=O)[O-])c(Cl)cc1NCc1ccncc1`, the “activity, negative = cytotoxicity” value is reported as inactive: -27.6%. For `CCOC(=O)c1c(C)oc2c1c(C=NCc1ccccn1)c(O)c1ccccc12`, the Potency was inconclusive: 25.9 µM [inhibitor, single point]. With `O=C(Nc1ccccc1)[C@@H]1CC=C[C@@H]2CCN(Cc3ccc(Cl)c(Cl)c3)C(=O)[C@@H]21` the Potency was inconclusive: 18.4 µM [inhibitor, single point]. For `CC(C)CC(NC(=O)c1cccs1)c1nnc(SCc2ccc(Cl)c(Cl)c2)n1C` (stereo not drawn), the Potency was active: 18.4 µM. For `C=CCNC(=O)c1onc(CSc2ccc(F)cc2)c1C(=O)NCCOC`, the “activity, negative = cytotoxicity” value was inactive: 2.16%. For `COCCNc1nc(NCc2cccs2)nc2ccsc12`, the Potency was inconclusive: 16.4 µM [inhibitor, single point]. For `OC1(c2ccc(Cl)cc2)CCN(Cc2cn[nH]c2-c2ccc(F)cc2)CC1`, the Potency was inconclusive: 11.6 µM [inhibitor, partial curve]. In the case of `O=C(Oc1c(CN2CCOCC2)cc(Cl)c2cccnc12)c1ccccc1Br`, the Potency is reported as inconclusive: 6.51 µM [inhibitor, partial curve]. In the case of `CC(C)C[C@H]1CN([C@@H](Cc2ccc(O)cc2)CN2CCC[C@@H]2CN2C(=S)NC[C@@H]2Cc2ccccc2)C(=S)N1CC1CCCCCC1`, the “activity, negative = cytotoxicity” value is reported as inactive: -8.72%. With `Cc1ccc(CS(=O)(=O)c2ncc(Cl)c(C(=O)Nc3ccc(OC(F)F)cc3)n2)cc1` the Potency was active: 16.4 µM. For `Cc1ccc(SC2=C(N(C)C)C(=O)c3ccccc3C2=O)cc1`, the “activity, negative = cytotoxicity” value was inactive: -21.1%. In the case of `O=C(O)c1cc(-c2ccc(-c3c(-c4ccc5c(c4)OCO5)noc3-c3ccsc3)cc2)nc2ccccc12`, the Potency is reported as inconclusive: 11.6 µM [inhibitor, partial curve]. With `O=C(c1ccc(Cl)c(Cl)c1)N1CCC(=O)N(C(COCc2ccc(Cl)cc2)Cc2ccccc2)CC1` (stereo not drawn) the Potency was inconclusive: 16.4 µM [inhibitor, single point]. In the case of `CCSc1ccccc1C(=O)n1nnc2ccccc21`, the Potency is reported as inconclusive: 18.4 µM [inhibitor, single point]. In the case of `COC(=O)c1c(NC(=O)c2ccc([N+](=O)[O-])o2)sc2c1CCN(C(C)C)C2`, the Potency is reported as active: 10.3 µM. For `Cc1ccccc1NC(=O)c1cc(C(=O)c2cc(Cl)ccc2O)cn(-c2ccccc2C)c1=O`, the Potency was inconclusive: 20.6 µM [inhibitor, single point]. In the case of `CC(C)(C)c1nnc(NC(=O)CCS(=O)(=O)c2ccccc2)s1`, the “activity, negative = cytotoxicity” value is reported as inactive: -10.2%. For `O=S(=O)(c1ccc2nc(SCc3ccc(Cl)cc3)[nH]c2c1)N1CCOCC1`, the “activity, negative = cytotoxicity” value was inactive: -23.4%. In the case of `COc1ccc(CCNC(=O)CNS(=O)(=O)c2ccc(Cl)cc2)cc1`, the “activity, negative = cytotoxicity” value is reported as inactive: 3.53%. For `O=C(C(=Cc1ccc(F)cc1)C(=O)c1ccccc1)c1ccccc1`, the Potency was inconclusive: 23.1 µM [inhibitor, single point]. With `CN(C)c1ncnc2c1nnn2C1OC(CO)C(O)C1O` (stereo not drawn) the Potency was inconclusive: 1.03 µM [inhibitor, full curve]. In the case of `CCCOc1ccccc1C1CC(=O)Nc2cc3c(cc21)OCO3` (stereo not drawn), the Potency is reported as inconclusive: 2.91 µM [inhibitor, partial curve]. In the case of `COc1ccccc1-c1cc(C(F)(F)F)nc(S(=O)(=O)CCCC(=O)N2CCOCC2)n1`, the Potency is reported as active: 20.6 µM.
